These are yes or no findings as the source states them, for the method shown. For part of these data: In cells and extracts the contact can be indirect. Some entries that bind do so weakly or less than the wild type.

The chains behind the UniProt entries cited, without tags or fusion partners. Where a name states a change or a piece, a line headed by the entry shows the natural chain unless it says otherwise.
UniProt Q8NFG4: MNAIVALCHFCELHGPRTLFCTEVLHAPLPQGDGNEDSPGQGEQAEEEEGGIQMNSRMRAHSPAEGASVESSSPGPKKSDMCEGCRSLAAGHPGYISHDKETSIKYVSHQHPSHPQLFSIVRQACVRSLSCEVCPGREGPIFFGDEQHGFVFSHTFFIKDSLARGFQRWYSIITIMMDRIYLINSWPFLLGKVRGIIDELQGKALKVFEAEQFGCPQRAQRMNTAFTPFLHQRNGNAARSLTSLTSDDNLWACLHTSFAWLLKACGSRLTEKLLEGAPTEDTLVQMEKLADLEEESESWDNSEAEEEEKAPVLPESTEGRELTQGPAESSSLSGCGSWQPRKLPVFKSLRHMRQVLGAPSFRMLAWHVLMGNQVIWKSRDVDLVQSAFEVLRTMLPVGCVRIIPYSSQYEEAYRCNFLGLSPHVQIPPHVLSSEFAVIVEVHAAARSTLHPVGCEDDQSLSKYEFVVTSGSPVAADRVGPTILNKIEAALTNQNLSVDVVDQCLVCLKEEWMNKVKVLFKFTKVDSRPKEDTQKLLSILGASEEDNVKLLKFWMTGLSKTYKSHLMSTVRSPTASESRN
UniProt O95166: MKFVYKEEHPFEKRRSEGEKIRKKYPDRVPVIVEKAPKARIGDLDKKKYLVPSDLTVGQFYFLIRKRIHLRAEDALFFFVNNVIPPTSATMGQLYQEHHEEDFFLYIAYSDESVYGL

Experimental findings from publication doi:10.1101/2021.02.22.432209 are described below.

The target of experiment [1] is Biotinylated FLCN-8xGlycine-AviTag/FNIP2 (human) (UniProt Q8NFG4). Nature of the experiment: SPR. (In general: SPR reads the build-up and loss of mass on a sensor chip optically.)
Another experiment has as its target T1, FNIP1 (UniProt Q8TF40).
T1 sequence: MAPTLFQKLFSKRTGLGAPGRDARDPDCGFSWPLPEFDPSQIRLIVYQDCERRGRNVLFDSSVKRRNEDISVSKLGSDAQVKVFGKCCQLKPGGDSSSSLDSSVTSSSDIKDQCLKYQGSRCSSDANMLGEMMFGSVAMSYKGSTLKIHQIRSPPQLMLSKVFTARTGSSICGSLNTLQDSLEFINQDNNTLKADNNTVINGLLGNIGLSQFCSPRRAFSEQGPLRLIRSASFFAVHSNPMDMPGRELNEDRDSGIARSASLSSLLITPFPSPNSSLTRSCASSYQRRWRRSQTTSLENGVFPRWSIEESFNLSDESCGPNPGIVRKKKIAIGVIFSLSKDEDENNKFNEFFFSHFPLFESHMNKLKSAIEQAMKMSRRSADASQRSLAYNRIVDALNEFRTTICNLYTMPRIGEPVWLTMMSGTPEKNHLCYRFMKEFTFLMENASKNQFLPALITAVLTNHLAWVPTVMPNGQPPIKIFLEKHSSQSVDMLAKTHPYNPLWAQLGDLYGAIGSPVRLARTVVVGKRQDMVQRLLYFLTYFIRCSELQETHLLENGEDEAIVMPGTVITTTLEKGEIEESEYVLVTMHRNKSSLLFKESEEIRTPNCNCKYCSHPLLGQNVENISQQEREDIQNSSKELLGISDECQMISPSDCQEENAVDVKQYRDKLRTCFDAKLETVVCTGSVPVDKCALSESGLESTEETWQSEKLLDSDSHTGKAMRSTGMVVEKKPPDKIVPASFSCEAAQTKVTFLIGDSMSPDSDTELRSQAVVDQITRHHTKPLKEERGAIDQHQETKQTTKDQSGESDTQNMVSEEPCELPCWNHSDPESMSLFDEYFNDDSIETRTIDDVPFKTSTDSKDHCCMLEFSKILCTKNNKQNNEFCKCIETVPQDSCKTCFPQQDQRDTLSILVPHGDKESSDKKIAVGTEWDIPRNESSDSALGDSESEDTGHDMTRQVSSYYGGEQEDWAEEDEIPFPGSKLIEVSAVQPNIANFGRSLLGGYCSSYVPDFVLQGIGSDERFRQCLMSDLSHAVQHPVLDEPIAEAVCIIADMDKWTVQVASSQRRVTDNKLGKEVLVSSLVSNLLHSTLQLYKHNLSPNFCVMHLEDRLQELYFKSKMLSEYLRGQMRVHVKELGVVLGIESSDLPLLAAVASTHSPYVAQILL
The experiment in a line: co-IP.

The target of experiment [2] is FNIP1 LIR mutant Y583A/V586A (UniProt Q8TF40). Nature of the experiment: co-IP.

Consider “GABARAP (1-117), His8-TEV-GABARAP (from UniProt O95166 1-117)”, for which the binding result in experiment [1] is “binds”. For GABARAP (from UniProt O95166 1-117), the figures for the binding entry (with FNIP1; in experiment [2]) were “binds” and “no binding”, respectively.
